Results published in the supplement of paper PMC10849652.
This is one part of the list.

Amino acid sequences for entries named in this document (tags omitted). A change or cut given only in a name is not applied to a line headed by its entry.
UniProt O95104: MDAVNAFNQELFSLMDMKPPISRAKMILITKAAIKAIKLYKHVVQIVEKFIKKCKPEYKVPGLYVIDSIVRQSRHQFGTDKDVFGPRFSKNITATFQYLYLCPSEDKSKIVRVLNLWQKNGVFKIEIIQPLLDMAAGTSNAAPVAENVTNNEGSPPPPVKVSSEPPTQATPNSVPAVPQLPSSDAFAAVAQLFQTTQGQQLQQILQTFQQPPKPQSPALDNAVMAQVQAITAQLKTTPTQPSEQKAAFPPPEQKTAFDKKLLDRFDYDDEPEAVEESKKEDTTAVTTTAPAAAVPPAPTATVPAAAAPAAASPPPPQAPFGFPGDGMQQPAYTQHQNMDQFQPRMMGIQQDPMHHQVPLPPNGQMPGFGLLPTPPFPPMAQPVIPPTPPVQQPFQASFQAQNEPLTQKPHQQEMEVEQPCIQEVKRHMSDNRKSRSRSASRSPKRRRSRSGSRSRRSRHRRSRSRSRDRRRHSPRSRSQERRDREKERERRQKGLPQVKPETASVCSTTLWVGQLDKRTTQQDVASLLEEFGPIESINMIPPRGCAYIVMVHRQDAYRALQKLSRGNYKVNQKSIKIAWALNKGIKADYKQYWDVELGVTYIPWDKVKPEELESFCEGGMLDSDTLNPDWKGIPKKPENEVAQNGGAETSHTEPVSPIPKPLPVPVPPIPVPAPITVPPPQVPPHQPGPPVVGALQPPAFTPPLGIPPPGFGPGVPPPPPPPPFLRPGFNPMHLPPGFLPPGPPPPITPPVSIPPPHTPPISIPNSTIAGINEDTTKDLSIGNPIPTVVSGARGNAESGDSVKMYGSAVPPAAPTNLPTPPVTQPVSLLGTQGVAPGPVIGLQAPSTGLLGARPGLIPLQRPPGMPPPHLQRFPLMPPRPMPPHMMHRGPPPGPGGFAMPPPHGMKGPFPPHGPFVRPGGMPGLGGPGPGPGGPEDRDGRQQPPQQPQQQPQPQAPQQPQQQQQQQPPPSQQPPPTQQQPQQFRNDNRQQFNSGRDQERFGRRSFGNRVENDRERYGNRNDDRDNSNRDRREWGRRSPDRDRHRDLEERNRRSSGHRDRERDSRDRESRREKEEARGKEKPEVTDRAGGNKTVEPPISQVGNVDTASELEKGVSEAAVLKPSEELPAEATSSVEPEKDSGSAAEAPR
UniProt O00560: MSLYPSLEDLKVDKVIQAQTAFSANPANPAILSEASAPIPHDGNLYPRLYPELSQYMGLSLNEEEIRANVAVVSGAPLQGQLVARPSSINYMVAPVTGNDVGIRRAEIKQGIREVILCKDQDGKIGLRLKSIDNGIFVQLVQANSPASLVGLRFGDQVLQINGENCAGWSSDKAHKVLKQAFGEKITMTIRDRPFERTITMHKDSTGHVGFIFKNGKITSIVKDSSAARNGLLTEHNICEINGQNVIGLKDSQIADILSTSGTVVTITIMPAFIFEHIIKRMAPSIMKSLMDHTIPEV
UniProt Q6UVJ0: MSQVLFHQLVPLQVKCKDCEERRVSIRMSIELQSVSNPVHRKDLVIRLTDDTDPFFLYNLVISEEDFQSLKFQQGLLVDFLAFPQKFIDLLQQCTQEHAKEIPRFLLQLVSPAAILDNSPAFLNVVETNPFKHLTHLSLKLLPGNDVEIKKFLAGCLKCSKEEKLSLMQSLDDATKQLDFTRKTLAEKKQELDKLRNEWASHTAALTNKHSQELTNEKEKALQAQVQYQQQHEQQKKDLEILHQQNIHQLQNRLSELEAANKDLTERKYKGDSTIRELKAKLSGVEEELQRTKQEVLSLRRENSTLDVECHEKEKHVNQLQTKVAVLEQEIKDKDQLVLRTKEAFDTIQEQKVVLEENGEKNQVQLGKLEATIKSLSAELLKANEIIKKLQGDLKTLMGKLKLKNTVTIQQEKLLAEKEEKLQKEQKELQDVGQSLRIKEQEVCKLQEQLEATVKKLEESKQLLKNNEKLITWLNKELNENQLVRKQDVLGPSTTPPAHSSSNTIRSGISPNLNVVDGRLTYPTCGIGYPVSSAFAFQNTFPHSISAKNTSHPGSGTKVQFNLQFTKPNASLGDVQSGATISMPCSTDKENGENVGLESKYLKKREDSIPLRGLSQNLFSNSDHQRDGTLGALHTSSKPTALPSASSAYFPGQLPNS
UniProt P60903, whole entry, looked up: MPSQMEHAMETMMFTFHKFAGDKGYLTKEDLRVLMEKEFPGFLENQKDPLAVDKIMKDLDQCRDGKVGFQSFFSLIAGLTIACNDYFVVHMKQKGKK
UniProt Q9Y512: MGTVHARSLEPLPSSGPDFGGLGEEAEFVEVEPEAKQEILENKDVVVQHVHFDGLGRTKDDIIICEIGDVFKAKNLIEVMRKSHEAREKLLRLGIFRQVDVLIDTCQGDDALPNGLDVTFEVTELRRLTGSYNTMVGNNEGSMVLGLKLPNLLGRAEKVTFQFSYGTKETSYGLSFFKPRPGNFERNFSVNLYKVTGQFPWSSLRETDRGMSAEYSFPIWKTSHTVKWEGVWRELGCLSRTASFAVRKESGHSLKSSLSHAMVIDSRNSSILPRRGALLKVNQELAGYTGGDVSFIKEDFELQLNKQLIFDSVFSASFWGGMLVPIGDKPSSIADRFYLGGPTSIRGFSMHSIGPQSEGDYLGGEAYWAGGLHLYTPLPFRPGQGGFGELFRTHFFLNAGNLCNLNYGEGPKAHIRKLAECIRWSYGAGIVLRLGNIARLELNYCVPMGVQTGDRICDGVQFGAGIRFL
UniProt Q9NQC3: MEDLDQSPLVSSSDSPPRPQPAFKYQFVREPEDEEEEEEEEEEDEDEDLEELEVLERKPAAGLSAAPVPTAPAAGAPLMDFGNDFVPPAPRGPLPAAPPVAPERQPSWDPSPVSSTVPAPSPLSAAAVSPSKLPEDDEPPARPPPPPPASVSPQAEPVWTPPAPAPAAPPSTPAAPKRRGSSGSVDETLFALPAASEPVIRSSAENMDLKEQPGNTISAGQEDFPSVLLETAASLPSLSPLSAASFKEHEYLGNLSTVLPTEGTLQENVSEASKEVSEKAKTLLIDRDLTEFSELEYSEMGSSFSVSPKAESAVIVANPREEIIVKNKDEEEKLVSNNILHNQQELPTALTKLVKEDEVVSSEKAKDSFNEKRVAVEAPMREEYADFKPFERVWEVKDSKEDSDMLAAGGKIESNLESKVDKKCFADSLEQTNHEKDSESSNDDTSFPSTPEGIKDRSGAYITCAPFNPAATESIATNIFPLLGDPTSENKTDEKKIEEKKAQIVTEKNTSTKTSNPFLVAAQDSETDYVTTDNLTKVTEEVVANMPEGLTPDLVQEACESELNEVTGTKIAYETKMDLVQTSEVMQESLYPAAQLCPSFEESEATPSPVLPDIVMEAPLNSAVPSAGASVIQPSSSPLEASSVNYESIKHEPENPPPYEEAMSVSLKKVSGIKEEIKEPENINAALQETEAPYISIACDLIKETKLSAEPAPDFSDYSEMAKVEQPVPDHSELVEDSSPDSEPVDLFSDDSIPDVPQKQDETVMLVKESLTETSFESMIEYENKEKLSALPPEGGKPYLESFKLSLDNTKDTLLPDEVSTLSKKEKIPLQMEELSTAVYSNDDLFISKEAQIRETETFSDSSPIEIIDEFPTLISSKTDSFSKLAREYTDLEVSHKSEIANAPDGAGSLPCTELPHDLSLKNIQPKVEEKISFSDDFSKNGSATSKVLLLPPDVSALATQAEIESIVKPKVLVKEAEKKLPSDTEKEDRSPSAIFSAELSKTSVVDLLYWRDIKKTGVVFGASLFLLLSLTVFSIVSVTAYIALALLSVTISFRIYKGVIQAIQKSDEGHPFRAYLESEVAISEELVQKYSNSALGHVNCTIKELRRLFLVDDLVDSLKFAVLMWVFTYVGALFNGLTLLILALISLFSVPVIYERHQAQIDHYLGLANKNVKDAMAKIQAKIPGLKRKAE
UniProt Q9NTJ5: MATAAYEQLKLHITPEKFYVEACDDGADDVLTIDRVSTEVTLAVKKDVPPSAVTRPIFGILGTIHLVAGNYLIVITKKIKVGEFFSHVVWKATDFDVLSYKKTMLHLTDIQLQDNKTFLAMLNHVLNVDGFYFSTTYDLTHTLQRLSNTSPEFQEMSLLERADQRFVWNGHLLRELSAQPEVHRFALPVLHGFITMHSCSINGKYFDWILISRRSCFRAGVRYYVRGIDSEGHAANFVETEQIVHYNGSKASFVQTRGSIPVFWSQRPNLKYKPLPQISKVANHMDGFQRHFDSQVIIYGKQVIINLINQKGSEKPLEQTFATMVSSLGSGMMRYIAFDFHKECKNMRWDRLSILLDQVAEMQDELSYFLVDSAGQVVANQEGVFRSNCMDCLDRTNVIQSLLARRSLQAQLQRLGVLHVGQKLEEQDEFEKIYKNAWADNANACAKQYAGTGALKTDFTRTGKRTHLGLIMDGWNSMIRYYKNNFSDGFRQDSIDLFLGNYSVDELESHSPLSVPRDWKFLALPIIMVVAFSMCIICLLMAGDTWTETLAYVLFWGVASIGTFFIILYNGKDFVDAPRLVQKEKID
UniProt Q99584: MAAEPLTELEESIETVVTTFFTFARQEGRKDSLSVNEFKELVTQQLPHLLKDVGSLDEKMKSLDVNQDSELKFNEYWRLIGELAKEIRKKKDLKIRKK
UniProt O95487: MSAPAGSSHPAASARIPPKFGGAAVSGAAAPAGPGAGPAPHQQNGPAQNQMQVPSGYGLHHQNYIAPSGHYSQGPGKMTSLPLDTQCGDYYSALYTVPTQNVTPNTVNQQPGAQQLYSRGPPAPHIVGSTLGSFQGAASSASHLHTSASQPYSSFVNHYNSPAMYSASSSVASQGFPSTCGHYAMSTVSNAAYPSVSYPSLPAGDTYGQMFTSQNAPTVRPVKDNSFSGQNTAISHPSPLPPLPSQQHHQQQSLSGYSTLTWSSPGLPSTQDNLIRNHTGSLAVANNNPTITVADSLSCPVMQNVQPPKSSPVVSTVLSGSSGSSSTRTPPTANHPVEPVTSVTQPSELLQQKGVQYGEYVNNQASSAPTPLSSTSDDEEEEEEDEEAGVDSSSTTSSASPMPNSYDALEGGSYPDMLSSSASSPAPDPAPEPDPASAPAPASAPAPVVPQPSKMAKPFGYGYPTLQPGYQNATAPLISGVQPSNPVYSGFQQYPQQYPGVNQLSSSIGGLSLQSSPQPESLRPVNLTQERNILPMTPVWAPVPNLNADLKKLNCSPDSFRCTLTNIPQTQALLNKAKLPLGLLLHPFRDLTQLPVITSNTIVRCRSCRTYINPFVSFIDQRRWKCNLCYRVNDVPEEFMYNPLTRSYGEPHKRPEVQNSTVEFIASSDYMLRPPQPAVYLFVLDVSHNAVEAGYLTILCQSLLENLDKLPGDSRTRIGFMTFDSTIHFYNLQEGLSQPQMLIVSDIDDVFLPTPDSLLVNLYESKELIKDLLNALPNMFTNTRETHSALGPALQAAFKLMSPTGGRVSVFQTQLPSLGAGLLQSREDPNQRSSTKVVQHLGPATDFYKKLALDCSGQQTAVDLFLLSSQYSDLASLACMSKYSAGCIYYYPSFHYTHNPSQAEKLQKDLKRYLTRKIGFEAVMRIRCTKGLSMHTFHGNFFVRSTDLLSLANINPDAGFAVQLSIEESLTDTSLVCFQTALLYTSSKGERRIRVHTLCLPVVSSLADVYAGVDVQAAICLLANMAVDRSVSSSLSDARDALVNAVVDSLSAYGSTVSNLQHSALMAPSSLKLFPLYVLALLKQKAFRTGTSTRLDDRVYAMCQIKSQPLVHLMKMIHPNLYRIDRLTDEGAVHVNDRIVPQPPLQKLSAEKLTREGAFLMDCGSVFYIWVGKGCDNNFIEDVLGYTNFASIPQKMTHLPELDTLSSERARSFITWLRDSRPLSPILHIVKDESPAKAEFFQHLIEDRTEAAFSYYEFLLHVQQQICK
UniProt O43819: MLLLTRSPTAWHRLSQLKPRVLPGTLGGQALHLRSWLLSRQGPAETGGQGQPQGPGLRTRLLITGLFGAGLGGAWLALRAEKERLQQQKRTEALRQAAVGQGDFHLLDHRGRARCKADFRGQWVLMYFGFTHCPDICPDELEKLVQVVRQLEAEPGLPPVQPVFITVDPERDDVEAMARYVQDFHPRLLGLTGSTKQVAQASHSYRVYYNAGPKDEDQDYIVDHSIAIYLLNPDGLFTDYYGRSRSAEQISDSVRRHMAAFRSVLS
UniProt P31949: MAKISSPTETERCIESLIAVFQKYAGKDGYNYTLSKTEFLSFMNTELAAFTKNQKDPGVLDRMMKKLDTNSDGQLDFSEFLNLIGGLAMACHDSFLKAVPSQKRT
UniProt O14828: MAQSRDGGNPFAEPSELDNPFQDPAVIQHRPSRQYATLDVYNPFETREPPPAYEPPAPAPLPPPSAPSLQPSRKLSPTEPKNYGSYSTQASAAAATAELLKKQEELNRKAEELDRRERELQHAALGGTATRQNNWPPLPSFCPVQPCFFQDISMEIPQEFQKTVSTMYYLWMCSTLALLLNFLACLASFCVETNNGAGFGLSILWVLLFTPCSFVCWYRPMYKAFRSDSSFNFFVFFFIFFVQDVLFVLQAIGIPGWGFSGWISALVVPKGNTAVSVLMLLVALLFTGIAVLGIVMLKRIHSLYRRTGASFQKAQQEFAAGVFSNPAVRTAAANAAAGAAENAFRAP

How the values were obtained:
Assay in all cases: log2 fold change, soluble protein after heating vs DMSO (PISA); higher = thermal stabilisation; K562 cells, 10 uM, 30 min; active = over 0.2 and 3.5 SD of the protein, either way, in both replicates (recomputed)
[1] = compound: Cc1ccc(NC(=O)c2ccc(CN3CC[C@H](N(C)C)C3)c(C(F)(F)F)c2)cc1Nc1nccc(-c2cncnc2)n1 [bafetinib]
In short: (§1)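 K562 cells (2×10^6 cells/mL) were treated with 10 μM compound for 30 min, and aliquots were heated for 3 min over 48°C-58°C. Pooled aliquots were extracted in PBS with 0.5% NP-40 at 4°C, and the supernatant after 21,000xg for 90 min was measured by TMTpro 16plex LC-MS/MS with channel sums equalised. Reported thermal stability, relative to control samples and from duplicates, is a log2 fold change.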

[2] = compound: Cc1cccc(CC(=O)N2CCc3c2ccc(-c2cn(C)c4ncnc(N)c24)c3F)n1
In short: as §1

[3] = compound: Cc1cn(-c2cc(NC(=O)c3ccc(C)c(Nc4nccc(-c5cccnc5)n4)c3)cc(C(F)(F)F)c2)cn1 [nilotinib]
In short: as §1

[4] = compound: Cc1nc(Nc2n[nH]c3c2CN(C(=O)N[C@H](CN(C)C)c2ccccc2)C3(C)C)c2sccc2n1
In short: as §1

[5] = compound: Cc1nc(Nc2ncc(C(=O)Nc3c(C)cccc3Cl)s2)cc(N2CCN(CCO)CC2)n1 [dasatinib]
In short: as §1

[6] = compound: Cc1ncc(-c2ccnc(Nc3ccc(S(C)(=O)=O)cc3)n2)n1C(C)C
In short: as §1

[7] = compound: Cn1cc(-c2ccc3c(c2)CCN3C(=O)Cc2cccc(C(F)(F)F)c2)c2c(N)ncnc21
In short: as §1

[8] = compound: Cn1cc(-c2ccc3nnc(C(F)(F)c4ccc5ncccc5c4)n3n2)cn1
In short: as §1

[9] = compound: Cn1cncc1[C@@](N)(c1ccc(Cl)cc1)c1ccc2c(c1)c(-c1cccc(Cl)c1)cc(=O)n2C [tipifarnib]
In short: as §1

[10] = compound: FC(F)(F)c1ccc(/C=C/c2nc(COc3ccc(CCCCn4ccnn4)cc3)co2)cc1 [mubritinib]
In short: as §1

Measured: log2 fold change

SCYL1 (UniProt Q96KG9)
inactive: [1] -0.015 | [2] 0.008 | [3] -0.028 | [4] -0.04 | [5] -0.056 | [6] 0.015 | [7] 0.024 | [8] -0.024 | [9] -0.035 | [10] 0.036

SEC23B (UniProt Q15437)
inactive: [1] 0.001 | [2] -0.002 | [3] -0.028 | [4] -0.004 | [5] -0.06 | [6] -0.013 | [7] 0.044 | [8] -0.021 | [9] -0.031 | [10] 0.006

SCAF4 (UniProt O95104)
inactive: [1] -0.121 | [2] -0.008 | [3] 0.017 | [4] -0.123 | [5] -0.131 | [6] 0.064 | [7] -0.126 | [9] 0.183 | [10] 0.048

SEC22A (UniProt Q96IW7)
inactive: [1] 0.132 | [2] -0.041 | [5] 0.153 | [7] -0.105 | [8] 0.03 | [9] 0.034

SDCBP isoform 2 (UniProt O00560)
inactive: [1] -0.298 | [2] -0.066 | [3] 0.108 | [4] -0.219 | [5] -0.083 | [6] -0.205 | [8] -0.085 | [9] 0.109 | [10] 0.033

SASS6 (UniProt Q6UVJ0)
inactive: [1] -0.073 | [2] 0.029 | [3] -0.267 | [4] -0.108 | [5] -0.062 | [6] 0.151 | [7] -0.065 | [8] -0.066 | [9] -0.076 | [10] 0

SDHAF2 (UniProt Q9NX18)
inactive: [1] -0.083 | [2] 0.166 | [3] -0.02 | [4] 0.022 | [5] 0.057 | [6] -0.007 | [7] 0.056 | [8] 0.017 | [9] 0.007 | [10] 0.058

SCNM1 (UniProt Q9BWG6)
inactive: [1] -0.188 | [2] -0.122 | [3] 0.081 | [4] 0.003 | [5] 0.06 | [6] 0.023 | [8] 0.023 | [9] 0.051 | [10] -0.05

SDHC (UniProt Q99643)
inactive: [1] 0 | [2] -0.127 | [3] 0.007 | [4] 0.068 | [5] 0.028 | [6] -0.056 | [7] -0.011 | [8] -0.024 | [9] 0.211 | [10] 0.02

SCYL2 (UniProt Q6P3W7)
inactive: [1] -0.05 | [2] 0.018 | [3] -0.007 | [4] -0.007 | [5] -0.103 | [6] -0.017 | [7] 0.023 | [8] -0.052 | [9] -0.029 | [10] 0.018

S100A10 (UniProt P60903)
inactive: [1] -0.026 | [2] -0.035 | [3] 0.072 | [4] -0.057 | [6] -0.016 | [7] 0.146 | [9] 0.131

SEC11C (UniProt Q9BY50)
inactive: [1] -0.069 | [2] 0.017 | [3] 0.02 | [4] 0.049 | [5] -0.042 | [6] -0.013 | [7] 0.031 | [8] 0.014 | [9] -0.119 | [10] 0.009

SAMM50 (UniProt Q9Y512)
inactive: [1] -0.09 | [2] 0.018 | [3] -0.008 | [4] 0.017 | [5] 0.042 | [6] 0.002 | [7] 0.014 | [8] 0.012 | [9] 0.044 | [10] 0.062

RTF1 (UniProt Q92541)
inactive: [1] -0.023 | [2] -0.006 | [3] -0.009 | [4] -0.082 | [5] -0.093 | [6] -0.01 | [7] 0.033 | [8] 0.015 | [9] -0.044 | [10] 0.086

SDAD1 (UniProt Q9NVU7)
inactive: [1] 0.107 | [2] 0.01 | [3] -0.324 | [4] 0.463 | [5] 0.1 | [6] -0.197 | [7] -0.026 | [8] 0.016 | [10] -0.032

RTN4 isoform 2 (UniProt Q9NQC3)
inactive: [1] -0.135 | [2] 0.112 | [5] 0.16 | [7] -0.058 | [8] 0.058 | [9] 0.025

SDCBP (UniProt O00560)
inactive: [1] -0.229 | [2] 0.038 | [3] 0.015 | [4] -0.021 | [5] -0.12 | [6] 0 | [7] -0.076 | [8] -0.058 | [9] 0.018 | [10] 0.025

SACM1L (UniProt Q9NTJ5)
inactive: [1] -0.011 | [2] -0.022 | [3] 0.044 | [4] -0.002 | [5] 0.012 | [6] 0.012 | [7] -0.009 | [8] 0 | [9] -0.024 | [10] -0.002

RUNX1 isoform 8 (UniProt Q01196)
inactive: [1] -0.149 | [2] -0.224 | [3] -0.07 | [4] -0.281 | [5] -0.082 | [6] -0.209 | [8] -0.104 | [9] 0.001 | [10] 0.01

SEC13 isoform 3 (UniProt P55735)
inactive: [1] -0.029 | [2] 0.045 | [3] -0.036 | [4] -0.019 | [5] -0.007 | [6] -0.02 | [7] -0.035 | [8] 0.027 | [9] -0.079 | [10] 0.049

S100A13 (UniProt Q99584)
inactive: [1] -0.063 | [2] -0.048 | [3] 0.007 | [4] 0.007 | [5] -0.034 | [6] -0.041 | [7] 0.091 | [8] 0.061 | [9] -0.105 | [10] 0.071

SAP18 isoform 2 (UniProt O00422)
inactive: [1] 0.073 | [2] -0.089 | [3] 0.062 | [4] 0.031 | [5] 0.201 | [6] 0.029 | [7] -0.165 | [8] -0.145 | [9] 0.097 | [10] -0.069

SEC24B isoform 3 (UniProt O95487)
inactive: [1] 0.026 | [2] -0.046 | [5] -0.186 | [7] -0.115 | [8] -0.004 | [9] -0.014 | [10] -0.114

SCO2 (UniProt O43819)
inactive: [1] -0.058 | [2] -0.014 | [5] -0.042 | [7] 0.107 | [8] 0.039 | [9] 0.014 | [10] -0.035

SCLT1 (UniProt Q96NL6)
inactive: [1] 0.087 | [2] -0.009 | [3] -0.099 | [4] -0.043 | [5] -0.052 | [6] 0.041 | [7] 0.191 | [10] 0.098

SDHB, A0A087WWT1
inactive: [1] -0.116 | [2] -0.077 | [5] 0.1 | [7] 0.015 | [8] -0.03 | [9] 0.178 | [10] 0.147

SART3, A0A499FI31
inactive: [1] -0.057 | [2] 0.039 | [3] -0.02 | [4] -0.189 | [5] -0.128 | [7] 0.029 | [8] -0.001 | [9] 0.008 | [10] 0.024
active: [6] -0.261

S100A11 (UniProt P31949)
inactive: [1] -0.06 | [2] -0.038 | [3] 0.029 | [4] 0 | [5] 0.077 | [6] -0.013 | [7] 0.065 | [8] 0.22 | [9] -0.082 | [10] 0.052

Two neighbouring records out of the list so far, for reference:
SDHB, A0A087WWT1
inactive: [1] -0.116 | [2] -0.077 | [5] 0.1 | [7] 0.015 | [8] -0.03 | [9] 0.178 | [10] 0.147

SART3, A0A499FI31
inactive: [1] -0.057 | [2] 0.039 | [3] -0.02 | [4] -0.189 | [5] -0.128 | [7] 0.029 | [8] -0.001 | [9] 0.008 | [10] 0.024
active: [6] -0.261

The list continues.

SEC31A (UniProt O94979)
inactive: [1] 0.011 | [2] 0.019 | [3] -0.11 | [4] -0.042 | [5] -0.134 | [6] 0.054 | [7] -0.031 | [8] -0.057 | [9] -0.065 | [10] 0.079

SCAMP3 (UniProt O14828)
inactive: [1] -0.035 | [2] -0.021 | [3] 0.089 | [4] -0.05 | [5] 0.07 | [6] -0.006 | [7] -0.03 | [8] 0.002 | [9] -0.005 | [10] 0.054

RTN3 (UniProt O95197)
inactive: [1] -0.049 | [2] -0.075 | [3] -0.022 | [4] 0.024 | [5] -0.038 | [6] -0.025 | [7] 0.067 | [8] 0.037 | [9] 0.007 | [10] 0
